Library compounds against nucleic acid targets

From ROBIN, a set of small-molecule microarray screens (doi:10.1002/anie.202211358).

Targets (5′ to 3′):
PreQ1: PreQ1 riboswitch RNA pseudoknot, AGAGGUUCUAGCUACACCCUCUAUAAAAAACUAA. From B. subtilis. Hit rate about 0.7% of about 24,000 compounds.
TPP: TPP riboswitch RNA three-way junction, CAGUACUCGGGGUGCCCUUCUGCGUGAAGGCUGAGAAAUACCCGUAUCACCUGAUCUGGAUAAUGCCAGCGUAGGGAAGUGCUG. Hit rate about 0.7% of about 24,000 compounds.
SAM-II: SAM-II riboswitch RNA pseudoknot, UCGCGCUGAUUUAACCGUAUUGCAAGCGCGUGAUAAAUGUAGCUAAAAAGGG. Hit rate about 1% of about 21,000 compounds.

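Compounds were printed on reactive glass slides in duplicate spots, a dye-labelled oligonucleotide was laid over them, and the fluorescence left after washing was read. The data file lists only calls. An earlier report of the laboratory on the PreQ1, TPP and SAM-II riboswitches (doi:10.1038/s41467-019-09493-3) used 1 µM RNA for 2 h and required a mean Z-score above 3 (spot signal-to-noise against the whole library), a score well above that on a control array, and duplicate spots agreeing (coefficient of variation under 100); it then also set aside compounds that hit other targets, which this list keeps. The cut-offs behind this list may differ. These are primary screening calls, not affinities; a compound without a hit may have attached poorly or may still bind in solution.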 Key: hit = hit, none = tested without a hit. Compounds were drawn at random from those tested, without regard to their results. A target missing from an entry has no call listed here.

{"compound": "CCOC(=O)c1nc(NCc2ccccc2)c2ccccc2n1", "PreQ1": "none", "TPP": "none", "SAM-II": "none"}
{"compound": "c1cn(Cc2ccc3nonc3c2)c(-c2cc3n(n2)CCCNC3)n1", "PreQ1": "none", "TPP": "none", "SAM-II": "none"}
{"compound": "CC=CCC=CCCC(=O)[C@H]1O[C@@H]1C(N)=O", "PreQ1": "none", "TPP": "none", "SAM-II": "none"}
{"compound": "COc1ccc(CCNCc2cc(-c3ccc(OC)cc3)no2)cc1", "PreQ1": "none", "TPP": "none", "SAM-II": "none"}
{"compound": "Nc1nc(CCC(=O)N2CCCn3nc(CCC(=O)O)cc3C2)cs1", "PreQ1": "none", "TPP": "none", "SAM-II": "none"}
{"compound": "Cc1cc(N)n(-c2ccc(-c3noc(CCc4c(C)nn(C)c4C)n3)cc2)n1", "PreQ1": "none", "TPP": "none", "SAM-II": "none"}
{"compound": "CNCC(=O)N1C[C@H]2C[C@H]3C[C@@H](C2)C[C@H]1C3", "PreQ1": "none", "TPP": "none", "SAM-II": "none"}
{"compound": "Cc1ccc(-c2csc3ncnc(Nc4ccc(C(=O)O)cc4)c23)cc1", "PreQ1": "none", "TPP": "none", "SAM-II": "none"}
{"compound": "O=S(=O)(c1ccccc1)c1nc(-c2ccco2)oc1NCCCN1CCOCC1", "PreQ1": "none", "TPP": "none"}
{"compound": "COc1ccc(C(=O)c2sc3nc(-c4ccccc4)cc(C(F)(F)F)c3c2N)cc1", "PreQ1": "none", "TPP": "none", "SAM-II": "none"}
{"compound": "O=C(Cc1ccc(-c2ccc(OCCN3CCOCC3)cc2)cn1)NCc1ccccc1", "PreQ1": "none", "TPP": "none", "SAM-II": "none"}
{"compound": "O=C(NCC1(O)CCCNCC1)c1ccc(=O)[nH]c1", "stereo": "configuration not stated", "PreQ1": "none", "TPP": "none", "SAM-II": "none"}
{"compound": "CC(C)Cc1cc(C(=O)N2C[C@@H]3[C@@H]4CC[C@@H](C4)[C@@H]3C2)nc(N)n1", "PreQ1": "none", "TPP": "none", "SAM-II": "none"}
{"compound": "Cn1ncc2c(Nc3ccccc3Cl)nc(Nc3ccccc3Cl)nc21", "PreQ1": "none", "TPP": "none", "SAM-II": "none"}
{"compound": "CCOC(=O)c1sc2ncc3cc4ccccc4nc3c2c1N", "PreQ1": "none", "TPP": "none", "SAM-II": "none"}
{"compound": "Cc1cccc(C(C)C)c1NS(=O)(=O)c1cc(Br)cnc1N", "PreQ1": "none", "TPP": "none"}
{"compound": "Cc1ccc(CNc2cccc(C(=O)NC(CO)(CO)CO)c2)cc1", "PreQ1": "none", "TPP": "none", "SAM-II": "none"}
{"compound": "OCC1(O)CCCN(Cc2ccc3c(c2)Cc2ccccc2-3)CC1", "stereo": "configuration not stated", "PreQ1": "none", "TPP": "none", "SAM-II": "none"}
{"compound": "CCN(CC)c1ccc(Nc2nc(-c3ccccn3)cs2)cc1", "PreQ1": "none", "TPP": "none", "SAM-II": "none"}
{"compound": "Cc1cccc(CNCc2ccc3c(c2)OCO3)c1", "PreQ1": "none", "TPP": "none", "SAM-II": "none"}
{"compound": "COc1ccc2c(CNCc3ccco3)c(C(=O)O)n(Cc3ccccc3F)c2c1", "PreQ1": "none", "TPP": "none"}
{"compound": "NCc1ccc(Cn2cnc(-c3ccccc3)c2-c2ccccc2C(=O)O)cc1", "PreQ1": "none", "TPP": "none", "SAM-II": "none"}
{"compound": "Cn1c(=O)c2c(-c3ccc(Cl)cc3)n(-c3cccc(N)c3)cc2n(C)c1=O", "PreQ1": "none", "TPP": "none"}
{"compound": "CCC(CO)Nc1nc2ccc(Cl)cc2c2ccccc12", "stereo": "configuration not stated", "PreQ1": "none", "TPP": "none", "SAM-II": "none"}
{"compound": "O=C(c1ccccc1N1CCCC1)N1CCC(Cc2ccc(CO)cc2)C1", "stereo": "configuration not stated", "PreQ1": "none", "TPP": "none", "SAM-II": "none"}
{"compound": "COc1ccc([C@@H]2C[C@H](c3ccc(OC)c(OC)c3)n3nc(N)nc3N2)cc1", "PreQ1": "none", "TPP": "none", "SAM-II": "none"}
{"compound": "Cc1cn([C@@H]2O[C@H](CO)[C@@H](O)[C@@H]2F)c(=O)[nH]c1=O", "PreQ1": "none", "TPP": "none", "SAM-II": "none"}
{"compound": "COCCN(CC(O)Cn1c2ccccc2c2ccccc21)C(=O)c1ccccc1", "stereo": "configuration not stated", "PreQ1": "none", "TPP": "none", "SAM-II": "none"}
{"compound": "Cc1ccc(CNC(=O)c2nnn(Cc3cccc(Br)c3)c2N)cc1", "PreQ1": "none", "TPP": "none", "SAM-II": "none"}
{"compound": "Nc1ncccc1CN1CCC(N2CCC(O)CC2)CC1", "PreQ1": "none", "TPP": "none", "SAM-II": "none"}
{"compound": "COc1ccccc1N1CC(c2nc3ccccc3n2CC(O)COc2ccc(C)cc2)CC1=O", "stereo": "configuration not stated", "PreQ1": "none", "TPP": "none"}
{"compound": "Nc1c(Cl)cc(Cl)c2c1C(=O)c1ccccc1C2=O", "PreQ1": "none", "TPP": "none", "SAM-II": "none"}